No constants are given. Whether binding was seen depends on the method and setting. Binding seen in cells or lysates may run through a third protein. Some entries that bind do so weakly or less than the wild type.
What was measured:
Details in all cases: remark: other sources report otherwise
[1] = target: T1, Beclin1 (mouse (endogenous in liver and BMDM)), O88597; experiment: co-IP; livers of LPS-treated iUVRAG^FS mice (Supplementary Fig. 2b, not shown); told only as 'similar results'
T1 chain: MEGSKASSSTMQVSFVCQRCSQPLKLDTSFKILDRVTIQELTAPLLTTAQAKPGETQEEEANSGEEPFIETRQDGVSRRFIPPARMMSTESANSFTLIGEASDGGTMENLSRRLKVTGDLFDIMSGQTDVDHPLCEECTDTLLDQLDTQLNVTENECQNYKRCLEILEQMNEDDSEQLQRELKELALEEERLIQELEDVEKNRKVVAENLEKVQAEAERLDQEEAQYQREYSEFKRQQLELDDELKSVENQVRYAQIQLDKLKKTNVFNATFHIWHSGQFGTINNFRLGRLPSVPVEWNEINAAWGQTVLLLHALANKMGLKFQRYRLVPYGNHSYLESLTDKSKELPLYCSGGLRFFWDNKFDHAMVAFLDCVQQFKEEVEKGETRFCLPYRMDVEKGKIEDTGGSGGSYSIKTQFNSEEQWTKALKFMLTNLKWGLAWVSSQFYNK

[2] = target: T1, Beclin1 (mouse (endogenous in liver and …)); experiment: co-IP; BMDMs from iUVRAG^FS mice, PBS or LPS (100 ng/ml) for 4 h, with or without Dox; IP with anti-Beclin1; lysis in 20 mM Tris pH 7.5, 150 mM NaCl, 1 mM EDTA, 2% Triton X-100; western blot
[3] = target: T2, β-catenin (mouse, endogenous) (mouse (endogenous in spleen and colon)), Q02248; experiment: co-IP; spleens from 18-month-old control and iUVRAG^FS mice on Dox (Fig. 7n; also Supplementary Fig. 7k, not shown); co-IP of β-catenin with LC3 and TCF4
T2 chain: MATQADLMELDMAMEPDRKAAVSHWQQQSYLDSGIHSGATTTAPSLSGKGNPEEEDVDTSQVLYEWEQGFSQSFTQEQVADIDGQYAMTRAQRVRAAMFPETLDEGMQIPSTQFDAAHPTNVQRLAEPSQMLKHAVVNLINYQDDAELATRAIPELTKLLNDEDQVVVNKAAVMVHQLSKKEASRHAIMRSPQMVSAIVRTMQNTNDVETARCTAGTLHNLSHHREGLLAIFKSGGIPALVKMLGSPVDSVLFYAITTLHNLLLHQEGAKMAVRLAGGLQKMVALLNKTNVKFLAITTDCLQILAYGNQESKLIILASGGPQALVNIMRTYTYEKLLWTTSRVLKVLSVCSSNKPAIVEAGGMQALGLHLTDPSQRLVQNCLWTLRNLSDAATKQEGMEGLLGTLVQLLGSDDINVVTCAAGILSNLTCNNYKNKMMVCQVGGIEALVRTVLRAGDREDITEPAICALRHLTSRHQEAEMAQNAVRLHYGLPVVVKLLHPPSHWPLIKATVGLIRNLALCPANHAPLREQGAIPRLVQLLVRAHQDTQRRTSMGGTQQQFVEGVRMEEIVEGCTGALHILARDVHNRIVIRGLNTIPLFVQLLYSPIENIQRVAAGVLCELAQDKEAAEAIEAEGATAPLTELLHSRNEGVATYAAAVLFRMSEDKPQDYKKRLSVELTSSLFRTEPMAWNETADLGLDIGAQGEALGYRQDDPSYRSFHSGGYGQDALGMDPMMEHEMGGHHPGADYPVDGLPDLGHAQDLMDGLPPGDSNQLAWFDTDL

[4] = target: T3, UVRAG (wild-type, endogenous mouse) (mouse (endogenous in liver and BMDM)), Q8K245; experiment: co-IP; liver of 48 h-starved control and Dox-treated/untreated iUVRAG^FS mice; IP with anti-UVRAG (C-term), IgG as negative control; lysis in 25 mM HEPES, 150 mM NaCl, 1 mM EDTA, 1% Triton X-100; western blot
T3 chain: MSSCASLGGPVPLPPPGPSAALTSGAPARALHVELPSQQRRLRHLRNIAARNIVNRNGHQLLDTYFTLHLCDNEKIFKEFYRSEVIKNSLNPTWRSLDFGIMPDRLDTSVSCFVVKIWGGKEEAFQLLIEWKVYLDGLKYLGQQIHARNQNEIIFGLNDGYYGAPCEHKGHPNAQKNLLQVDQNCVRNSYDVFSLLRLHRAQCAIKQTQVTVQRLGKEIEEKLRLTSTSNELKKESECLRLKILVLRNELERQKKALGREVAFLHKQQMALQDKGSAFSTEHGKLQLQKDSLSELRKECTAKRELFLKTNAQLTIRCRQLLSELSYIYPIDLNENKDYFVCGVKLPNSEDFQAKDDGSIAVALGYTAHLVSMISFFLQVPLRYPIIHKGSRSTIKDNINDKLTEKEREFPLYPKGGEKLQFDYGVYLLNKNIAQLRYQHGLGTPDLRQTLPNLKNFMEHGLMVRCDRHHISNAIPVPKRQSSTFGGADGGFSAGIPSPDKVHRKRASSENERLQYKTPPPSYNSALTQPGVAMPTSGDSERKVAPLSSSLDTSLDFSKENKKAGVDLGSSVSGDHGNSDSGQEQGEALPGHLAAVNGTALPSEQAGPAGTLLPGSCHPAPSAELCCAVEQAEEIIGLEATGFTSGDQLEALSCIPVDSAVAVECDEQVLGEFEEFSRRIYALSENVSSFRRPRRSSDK

B1: Bcl-2, P10417 1-236 (protein)
chain: MAQAGRTGYDNREIVMKYIHYKLSQRGYEWDAGDADAAPLGAAPTPGIFSFQPESNPMPAVHRDMAARTSPLRPLVATAGPALSPVPPVVHLTLRRAGDDFSRRYRRDFAEMSSQLHLTPFTARGRFATVVEELFRDGVNWGRIVAFFEFGGVMCVESVNREMSPLVDNIALWMTEYLNRHLHTWIQDNGGWDAFVELYGPSMRPLFDFSWLSLKTLLSLALVGACITLGAYLGHK
- binding [1]: binds
- binding [2]: binds

B2: TCF4, Q924A0 1-459 (protein)
chain: MPQLNGGGGDDLGANDELISFKDEGEQEEKNSENSSAERDLADVKSSLVNESETNQDSSSDSEAERRPPPRSESFRDKSRESLEEAAKRQDGGLFKGPPYPGYPFIMIPDLTSPYLPNGSLSPTARTYLQMKWPLLDVQAGSLQSRQTLKDARSPSPAHIVSNKVPVVQHPHHVHPLTPLITYSNEHFTPGNPPPHLPADVDPKTGIPRPPHPPDISPYYPLSPGTVGQIPHPLGWLVPQQGQPVYPITTGGFRHPYPTALTVNASMSRFPPHMVPPHHTLHTTGIPHPAIVTPTVKQESSQSDVGSLHSSKHQDSKKEEEKKKPHIKKPLNAFMLYMKEMRAKVVAECTLKESAAINQILGRRWHALSREEQAKYYELARKERQLHMQLYPGWSARDNYGKKKKRKRDKQPGETNEHSECFLNPCLSLPPITDLSAPKKCRARFGLDQQNNWCGPCSL
- binding [3]: binds

B3: Rubicon, Q80U62 1-956 (protein)
chain: MRPEGAGMDLGGGDGERLLEKSRREHWQLLGNLKTTVEGLVSANCPNVWSKYGGLERLCRDMQNILYHGLIHDQVCCRQADYWQFVKDIRWLSPHSALHVEKFISLHESDQSDTDSVSERAVAELWLQHSLQCHCLSAQLRPLLGDRQYIRKFYTETAFLLSDAHVTAMLQCLEAVEQNNPRLLAQIDASMFARKQESPLLVTKSQSLTALPGSTYTPPASYAQHSYFGSSSSLQSMPQSSHSSERRSTSFSLSGPSWQPQEDRECLSPAETQTTPAPLPSDSTLAQDSPLTAQEMSDSTLTSPLEASWVSSQNDSPSDVSEGPEYLAIGNPAPHGRTASCESHSSNGESSSSHLFSSSSSQKLESAASSLGDQEEGRQSQAGSVLRRSSFSEGQTAPVASGTKKSHIRSHSDTNIASRGAAGGPRNITIIVEDPIAEGGQYLCSGEGMFRRPSEGQSLISYLSEQDFGSCADLEKENAHFSISESLIAAIELMKCNMMSQCLEEEEVEEEDSDREIQELKQKIRLRRQQIRTKNLLPAYRETENGSFRVTSSSSQFSSRDSTQLSESGSAEDADDLEIQDADIRRSAVSNGKSSFSQNLSHCFLHSTSAEAVAMGLLKQFEGMQLPAASELEWLVPEHDAPQKLLPIPDSLPISPDDGQHADIYKLRIRVRGNLEWAPPRPQIIFNVHPAPTRKIAVAKQNYRCAGCGIRTDPDYIKRLRYCEYLGKYFCQCCHENAQMVVPSRILRKWDFSKYYVSNFSKDLLLKIWNDPLFNVQDINSALYRKVKLLNQVRLLRVQLYHMKNMFKTCRLAKELLDSFDVVPGHLTEDLHLYSLSDLTATKKGELGPRLAELTRAGAAHVERCMLCQAKGFICEFCQNEEDVIFPFELHKCRTCEECKACYHKTCFKSGRCPRCERLQARRELLAKQSLESYLSDYEEEPTEALALEATVLETT
- binding [4]: binds

Reference: paper PMC6908726
